Laboratory results from the supplement of paper PMC10470496.
Counter-ions that a name gives are not always drawn. This is one part of the list. Many values rest on one well or one pass, so single values are uncertain.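 Three clinical Candida auris isolates (clades III, IV and I) from the CDC resistance isolate bank were grown in RPMI-1640 at 35°C. Growth was background-corrected OD600 relative to same-plate vehicle-only wells. Hits required over 50% inhibition in at least two strains and a plate-corrected B-score above 0.1.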

Assays:
Experiment in all cases: growth relative to vehicle control (OD600 ratio) (fraction); higher = less inhibition
Settings in all cases: 24 h
[1] = tested on: C. auris AR-384
[2] = tested on: C. auris AR-386
[3] = tested on: C. auris AR-387

| Structure (SMILES) | growth ([1]; 1 µM) | growth ([1]; 10 µM) | growth ([2]; 1 µM) | growth ([2]; 10 µM) | growth ([3]; 1 µM) | growth ([3]; 10 µM) |
| --- | --- | --- | --- | --- | --- | --- |
| CC1CNc2c(cccc2S(=O)(=O)N[C@@H](CCCNC(=N)N)C(=O)N2CC[C@@H](C)C[C@@H]2C(=O)O)C1 (some centres undefined) [Argatroban] | 1.06 | 0.83 | 0.87 | 0.93 | 1 | 1.08 |
| CC(C)(C)c1cc(NC(=O)Nc2ccc(-c3cn4c(n3)sc3cc(OCCN5CCOCC5)ccc34)cc2)no1 [Quizartinib (AC220)] | 0.99 | 0.73 | 0.84 | 0.54 | 0.75 | 0.78 |
| CCOC(=O)[C@H]1O[C@@H]1C(=O)N[C@@H](CC(C)C)C(=O)NCCC(C)C [Aloxistatin] | 1.01 | 1.06 | 1.1 | 0.86 | 1.14 | 0.96 |
| COC(=O)[C@H](c1ccccc1Cl)N1CCc2sccc2C1 [Clopidogrel] | 1.02 | 0.57 | 0.45 | 0.72 | 0.79 | 0.7 |
| C=C1[C@H](CO)[C@@H](O)C[C@@H]1n1cnc2c(=O)[nH]c(N)nc21 [Entecavir Hydrate] | 1.07 | 0.83 | 0.75 | 0.9 | 0.79 | 1.05 |
| Cc1c(NC(=O)c2cccnc2)c(=O)n(-c2ccccc2)n1C [Nifenazone] | 0.98 | 0.97 | 0.93 | 0.95 | 0.87 | 0.99 |
| C=CCN1CCCC1CNC(=O)c1cc2nn[nH]c2cc1OC (centres undefined) [Alizapride HCl] | 0.75 | 0.86 | 0.85 | 0.91 | 0.91 | 0.8 |
| O=C1[C@H](CC[C@H](O)c2ccc(F)cc2)[C@@H](c2ccc(O)cc2)N1c1ccc(F)cc1 [Ezetimibe] | 0.95 | 1.06 | 1.07 | 0.8 | 0.91 | 0.92 |
| N[C@@H](Cc1c[nH]c2ccc(O)cc12)C(=O)O [5-hydroxytryptophan (5-HTP)] | 1.31 | 1.39 | 0.8 | 1.29 | 0.79 | 1.03 |
| CCC(=O)OCC(=O)[C@@]1(OC(=O)CC)[C@@H](C)C[C@H]2[C@@H]3CCC4=CC(=O)C=C[C@]4(C)[C@@]3(F)[C@@H](O)C[C@@]21C [Betamethasone Dipropionate] | 0.92 | 1.17 | 0.97 | 1 | 0.8 | 0.98 |
| CC(N)C12CC3CC(CC(C3)C1)C2 (centres undefined) [Rimantadine] | 0.86 | 1.07 | 0.85 | 0.72 | 0.71 | 0.66 |
| C[C@]12CC[C@@H]3c4ccc(OC(=O)c5ccccc5)cc4CC[C@H]3[C@@H]1CC[C@@H]2O [Estradiol Benzoate] | 1.18 | 0.95 | 0.94 | 1.05 | 1.13 | 1.21 |
| COc1cc(Nc2ncc3c(n2)-c2ccc(Cl)cc2C(c2c(F)cccc2OC)=NC3)ccc1C(=O)O [Alisertib (MLN8237)] | 1.01 | 0.78 | 1.18 | 0.96 | 0.78 | 0.96 |
| C[C@@H]1O[C@@H]1P(=O)(O)O [Fosfomycin calcium] | 0.66 | 0.85 | 0.87 | 0.95 | 1.06 | 0.6 |
| CN(C)C(=O)COC(=O)Cc1ccc(OC(=O)c2ccc(NC(=N)N)cc2)cc1 [Camostat Mesilate] | 1.07 | 1.1 | 1.01 | 0.96 | 0.98 | 1.18 |
| NCCC(O)(P(=O)(O)O)P(=O)(O)O [Pamidronate Disodium] | 0.61 | 0.83 | 0.66 | 0.94 | 0.84 | 0.74 |
| CN(CCOc1ccc(CC2SC(=O)NC2=O)cc1)c1ccccn1 (centres undefined) [Rosiglitazone maleate] | 1.2 | 1.31 | 1.23 | 1.19 | 1.09 | 1.09 |
| CS(=O)(=O)N1CCN(Cc2cc3nc(-c4cccc5[nH]ncc45)nc(N4CCOCC4)c3s2)CC1 [Pictilisib (GDC-0941)] | 0.9 | 0.99 | 0.94 | 0.83 | 0.82 | 0.83 |
| N=C1CCCN1Cc1[nH]c(=O)[nH]c(=O)c1Cl [Tipiracil hydrochloride] | 1.01 | 0.92 | 1.28 | 0.9 | 0.56 | 0.64 |
| O=c1oc2cc(O)ccc2s1 [Tioxolone] | 1.38 | 0.79 | 0.89 | 0.98 | 0.95 | 1.03 |
| COc1ccc(CC2c3cc(OC)c(OC)cc3CC[N+]2(C)CCC(=O)OCCCCCOC(=O)CC[N+]2(C)CCc3cc(OC)c(OC)cc3C2Cc2ccc(OC)c(OC)c2)cc1OC (centres undefined) [Atracurium Besylate] | 0.68 | 0.62 | 0.94 | 0.85 | 0.99 | 0.83 |
| CC(=O)Oc1ccc(C(c2ccc(OC(C)=O)cc2)c2ccccn2)cc1 [Bisacodyl] | 1.03 | 0.82 | 0.91 | 0.9 | 0.71 | 0.72 |
| N=C(N)NC(=O)c1nc(Cl)c(N)nc1N [Amiloride HCl] | 0.85 | 0.72 | 0.55 | 0.54 | 0.63 | 1.21 |
| CCCCC(=O)O[C@]1(C(=O)CO)[C@@H](C)C[C@H]2[C@@H]3CCC4=CC(=O)C=C[C@]4(C)[C@@]3(F)[C@@H](O)C[C@@]21C [Betamethasone Valerate] | 0.98 | 0.93 | 0.92 | 0.62 | 0.83 | 0.75 |
| C[C@H]1C[C@@H]2[C@H]([C@@H](O)C[C@@]3(C)[C@H]2CC[C@]3(O)C(=O)CO)[C@@]2(C)C=CC(=O)C=C12 [Methylprednisolone] | 0.95 | 1.35 | 1.26 | 1.26 | 1.01 | 0.87 |
| CC(C)[C@H](N)C(=O)OCCOCn1cnc2c(=O)nc(N)[nH]c21 [Valaciclovir HCl] | 1.04 | 0.88 | 1.36 | 0.74 | 1.04 | 0.97 |
| CC(C)(O)CNc1nc(Nc2ccnc(C(F)(F)F)c2)nc(-c2cccc(C(F)(F)F)n2)n1 [Enasidenib (AG-221)] | 1.39 | 1.38 | 1.37 | 1.5 | 1.53 | 1.5 |
| COc1ccnc(C[S+]([O-])c2nc3cc(OC(F)F)ccc3[nH]2)c1OC (centres undefined) [Pantoprazole sodium] | 1.18 | 1.39 | 1.14 | 1.16 | 1.33 | 1.26 |
| Nc1c(Br)cc(Br)cc1CN[C@H]1CC[C@H](O)CC1 [Ambroxol HCl] | 1.26 | 0.91 | 0.73 | 0.89 | 1.01 | 1 |

Some of the entries above in a different format.
Structure (SMILES) | growth ([1]; 1 µM) | growth ([1]; 10 µM) | growth ([2]; 1 µM) | growth ([2]; 10 µM) | growth ([3]; 1 µM) | growth ([3]; 10 µM)
C[C@]12CC[C@@H]3c4ccc(OC(=O)c5ccccc5)cc4CC[C@H]3[C@@H]1CC[C@@H]2O [Estradiol Benzoate] | 1.18 | 0.95 | 0.94 | 1.05 | 1.13 | 1.21
COc1cc(Nc2ncc3c(n2)-c2ccc(Cl)cc2C(c2c(F)cccc2OC)=NC3)ccc1C(=O)O [Alisertib (MLN8237)] | 1.01 | 0.78 | 1.18 | 0.96 | 0.78 | 0.96
